Data taken from the supplement of paper PMC10849652.
This is one part of the list.

Chains of the proteins cited; added tags and fusions are not shown. Lines headed by an entry give the natural chain unless they say otherwise; changes in a name come on top.
UniProt Q6N075: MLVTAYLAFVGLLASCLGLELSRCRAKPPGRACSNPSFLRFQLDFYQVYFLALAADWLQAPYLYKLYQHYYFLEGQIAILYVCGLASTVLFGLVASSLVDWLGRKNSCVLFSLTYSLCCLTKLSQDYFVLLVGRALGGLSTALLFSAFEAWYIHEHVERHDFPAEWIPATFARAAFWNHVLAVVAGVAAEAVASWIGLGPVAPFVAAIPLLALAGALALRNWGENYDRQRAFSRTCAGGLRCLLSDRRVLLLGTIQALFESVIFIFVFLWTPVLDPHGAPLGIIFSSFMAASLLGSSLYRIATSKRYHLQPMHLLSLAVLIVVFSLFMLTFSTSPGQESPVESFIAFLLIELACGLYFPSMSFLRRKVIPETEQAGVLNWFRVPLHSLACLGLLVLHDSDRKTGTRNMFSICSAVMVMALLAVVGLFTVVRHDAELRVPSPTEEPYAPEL
UniProt Q9P086: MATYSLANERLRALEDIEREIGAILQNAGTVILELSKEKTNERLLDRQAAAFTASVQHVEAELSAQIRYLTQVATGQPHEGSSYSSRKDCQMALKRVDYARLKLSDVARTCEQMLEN
UniProt Q5VZF2: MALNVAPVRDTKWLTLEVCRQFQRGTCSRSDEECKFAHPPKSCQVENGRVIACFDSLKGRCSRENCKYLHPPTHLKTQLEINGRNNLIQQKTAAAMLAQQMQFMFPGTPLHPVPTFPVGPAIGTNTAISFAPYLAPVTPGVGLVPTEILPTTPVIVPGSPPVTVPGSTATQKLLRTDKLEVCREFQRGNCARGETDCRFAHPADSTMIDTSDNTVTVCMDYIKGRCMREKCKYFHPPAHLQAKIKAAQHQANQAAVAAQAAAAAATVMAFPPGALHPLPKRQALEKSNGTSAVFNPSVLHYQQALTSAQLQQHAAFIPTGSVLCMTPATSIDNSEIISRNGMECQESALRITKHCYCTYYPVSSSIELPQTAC
UniProt P08582: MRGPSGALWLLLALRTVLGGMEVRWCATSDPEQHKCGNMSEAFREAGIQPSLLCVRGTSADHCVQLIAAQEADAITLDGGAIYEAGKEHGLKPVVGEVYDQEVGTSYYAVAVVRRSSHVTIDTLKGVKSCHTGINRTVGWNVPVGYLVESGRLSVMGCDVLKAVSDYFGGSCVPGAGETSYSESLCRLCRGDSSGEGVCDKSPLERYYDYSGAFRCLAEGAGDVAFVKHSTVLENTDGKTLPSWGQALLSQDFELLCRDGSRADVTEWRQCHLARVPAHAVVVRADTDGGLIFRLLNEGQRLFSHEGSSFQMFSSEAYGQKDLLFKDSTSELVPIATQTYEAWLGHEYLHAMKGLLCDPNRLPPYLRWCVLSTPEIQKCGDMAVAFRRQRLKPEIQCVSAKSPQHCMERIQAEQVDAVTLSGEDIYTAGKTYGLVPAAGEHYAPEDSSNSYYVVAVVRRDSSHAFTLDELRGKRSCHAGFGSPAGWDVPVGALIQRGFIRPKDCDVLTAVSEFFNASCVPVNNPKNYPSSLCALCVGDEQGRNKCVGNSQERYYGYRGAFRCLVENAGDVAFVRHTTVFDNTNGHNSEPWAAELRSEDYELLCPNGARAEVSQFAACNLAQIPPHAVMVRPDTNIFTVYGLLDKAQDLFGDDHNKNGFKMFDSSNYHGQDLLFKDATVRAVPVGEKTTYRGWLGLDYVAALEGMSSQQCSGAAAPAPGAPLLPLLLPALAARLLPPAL
UniProt P55082: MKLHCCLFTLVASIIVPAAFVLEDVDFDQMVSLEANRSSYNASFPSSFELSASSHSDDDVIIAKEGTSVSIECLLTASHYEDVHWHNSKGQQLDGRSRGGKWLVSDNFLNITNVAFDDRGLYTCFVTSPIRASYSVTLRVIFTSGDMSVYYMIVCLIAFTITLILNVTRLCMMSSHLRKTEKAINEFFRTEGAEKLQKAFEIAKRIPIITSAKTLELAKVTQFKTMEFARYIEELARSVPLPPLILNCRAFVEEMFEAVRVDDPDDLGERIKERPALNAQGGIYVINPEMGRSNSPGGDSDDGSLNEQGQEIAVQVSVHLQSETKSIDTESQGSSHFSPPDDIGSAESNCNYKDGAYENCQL
UniProt Q9BUE0: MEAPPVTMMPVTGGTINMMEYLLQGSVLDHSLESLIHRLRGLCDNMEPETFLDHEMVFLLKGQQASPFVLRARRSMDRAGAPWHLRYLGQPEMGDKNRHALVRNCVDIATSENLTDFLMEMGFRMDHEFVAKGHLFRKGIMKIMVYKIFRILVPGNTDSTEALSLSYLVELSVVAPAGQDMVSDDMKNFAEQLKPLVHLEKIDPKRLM
UniProt Q6ZNC8: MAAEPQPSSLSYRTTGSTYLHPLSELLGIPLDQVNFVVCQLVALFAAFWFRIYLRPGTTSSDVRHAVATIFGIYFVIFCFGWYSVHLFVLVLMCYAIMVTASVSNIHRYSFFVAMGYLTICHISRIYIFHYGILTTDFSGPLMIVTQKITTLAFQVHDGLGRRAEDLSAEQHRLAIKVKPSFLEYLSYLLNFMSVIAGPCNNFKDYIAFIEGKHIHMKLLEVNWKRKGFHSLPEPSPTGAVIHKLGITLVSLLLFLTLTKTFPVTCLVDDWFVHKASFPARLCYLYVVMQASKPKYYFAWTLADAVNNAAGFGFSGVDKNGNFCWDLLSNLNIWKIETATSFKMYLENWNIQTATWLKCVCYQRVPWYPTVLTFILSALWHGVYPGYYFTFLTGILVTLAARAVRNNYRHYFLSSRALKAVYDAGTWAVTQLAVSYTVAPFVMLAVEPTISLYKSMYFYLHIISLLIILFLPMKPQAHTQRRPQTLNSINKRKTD
UniProt Q16798: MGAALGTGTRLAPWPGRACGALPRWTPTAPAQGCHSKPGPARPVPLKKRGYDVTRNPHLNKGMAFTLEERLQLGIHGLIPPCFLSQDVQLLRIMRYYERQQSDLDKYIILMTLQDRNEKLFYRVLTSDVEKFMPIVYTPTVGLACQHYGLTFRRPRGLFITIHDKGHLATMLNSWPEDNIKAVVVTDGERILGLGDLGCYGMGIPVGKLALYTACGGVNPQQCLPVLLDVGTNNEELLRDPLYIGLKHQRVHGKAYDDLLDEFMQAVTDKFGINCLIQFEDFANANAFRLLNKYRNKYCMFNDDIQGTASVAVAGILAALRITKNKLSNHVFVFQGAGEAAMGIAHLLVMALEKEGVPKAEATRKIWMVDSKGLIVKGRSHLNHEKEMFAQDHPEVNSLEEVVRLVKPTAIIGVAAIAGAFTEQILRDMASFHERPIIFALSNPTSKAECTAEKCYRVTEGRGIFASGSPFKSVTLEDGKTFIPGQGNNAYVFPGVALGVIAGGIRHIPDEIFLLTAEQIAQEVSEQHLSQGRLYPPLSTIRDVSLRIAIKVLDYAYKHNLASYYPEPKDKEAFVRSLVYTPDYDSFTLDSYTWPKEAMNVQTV
UniProt A4D2B0: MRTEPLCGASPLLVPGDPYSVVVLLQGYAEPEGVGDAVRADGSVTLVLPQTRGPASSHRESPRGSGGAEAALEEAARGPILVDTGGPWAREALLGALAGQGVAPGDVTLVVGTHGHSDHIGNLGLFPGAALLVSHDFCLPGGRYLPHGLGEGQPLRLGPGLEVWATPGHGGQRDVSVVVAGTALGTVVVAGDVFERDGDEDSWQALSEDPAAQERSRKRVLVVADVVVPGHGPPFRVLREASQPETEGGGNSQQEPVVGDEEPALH
UniProt Q02078: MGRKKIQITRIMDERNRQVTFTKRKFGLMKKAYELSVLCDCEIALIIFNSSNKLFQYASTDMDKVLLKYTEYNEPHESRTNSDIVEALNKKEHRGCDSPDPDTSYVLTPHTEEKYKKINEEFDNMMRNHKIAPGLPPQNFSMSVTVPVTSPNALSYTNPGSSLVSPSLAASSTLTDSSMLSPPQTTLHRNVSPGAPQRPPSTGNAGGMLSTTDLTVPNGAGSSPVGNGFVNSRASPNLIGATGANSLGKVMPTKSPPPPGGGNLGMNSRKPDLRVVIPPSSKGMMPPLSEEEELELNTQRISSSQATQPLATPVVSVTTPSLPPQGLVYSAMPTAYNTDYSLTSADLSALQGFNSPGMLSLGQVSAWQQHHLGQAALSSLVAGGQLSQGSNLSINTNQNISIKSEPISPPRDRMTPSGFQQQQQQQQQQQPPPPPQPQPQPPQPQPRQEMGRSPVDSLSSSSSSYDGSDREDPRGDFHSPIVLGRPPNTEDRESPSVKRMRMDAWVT
UniProt Q9UBB5, whole entry, looked up: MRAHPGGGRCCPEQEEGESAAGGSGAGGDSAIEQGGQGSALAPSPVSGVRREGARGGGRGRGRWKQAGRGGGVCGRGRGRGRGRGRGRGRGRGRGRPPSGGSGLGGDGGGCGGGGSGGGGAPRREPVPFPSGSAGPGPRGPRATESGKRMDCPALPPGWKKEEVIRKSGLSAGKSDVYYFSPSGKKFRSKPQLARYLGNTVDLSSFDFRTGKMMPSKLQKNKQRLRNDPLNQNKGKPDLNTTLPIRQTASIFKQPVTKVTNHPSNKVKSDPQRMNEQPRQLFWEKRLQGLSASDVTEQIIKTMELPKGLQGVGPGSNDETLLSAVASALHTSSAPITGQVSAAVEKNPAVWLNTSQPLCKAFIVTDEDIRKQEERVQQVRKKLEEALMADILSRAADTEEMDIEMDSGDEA
MCTS2P, A0A3B3IRV3, UniProt A0A3B3IRV3, whole entry, looked up: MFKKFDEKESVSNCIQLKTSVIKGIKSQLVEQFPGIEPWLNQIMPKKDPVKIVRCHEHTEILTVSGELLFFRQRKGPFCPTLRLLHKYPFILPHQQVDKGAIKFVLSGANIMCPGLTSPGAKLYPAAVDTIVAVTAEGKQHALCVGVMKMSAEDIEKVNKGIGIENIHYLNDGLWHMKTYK
UniProt Q71SY5: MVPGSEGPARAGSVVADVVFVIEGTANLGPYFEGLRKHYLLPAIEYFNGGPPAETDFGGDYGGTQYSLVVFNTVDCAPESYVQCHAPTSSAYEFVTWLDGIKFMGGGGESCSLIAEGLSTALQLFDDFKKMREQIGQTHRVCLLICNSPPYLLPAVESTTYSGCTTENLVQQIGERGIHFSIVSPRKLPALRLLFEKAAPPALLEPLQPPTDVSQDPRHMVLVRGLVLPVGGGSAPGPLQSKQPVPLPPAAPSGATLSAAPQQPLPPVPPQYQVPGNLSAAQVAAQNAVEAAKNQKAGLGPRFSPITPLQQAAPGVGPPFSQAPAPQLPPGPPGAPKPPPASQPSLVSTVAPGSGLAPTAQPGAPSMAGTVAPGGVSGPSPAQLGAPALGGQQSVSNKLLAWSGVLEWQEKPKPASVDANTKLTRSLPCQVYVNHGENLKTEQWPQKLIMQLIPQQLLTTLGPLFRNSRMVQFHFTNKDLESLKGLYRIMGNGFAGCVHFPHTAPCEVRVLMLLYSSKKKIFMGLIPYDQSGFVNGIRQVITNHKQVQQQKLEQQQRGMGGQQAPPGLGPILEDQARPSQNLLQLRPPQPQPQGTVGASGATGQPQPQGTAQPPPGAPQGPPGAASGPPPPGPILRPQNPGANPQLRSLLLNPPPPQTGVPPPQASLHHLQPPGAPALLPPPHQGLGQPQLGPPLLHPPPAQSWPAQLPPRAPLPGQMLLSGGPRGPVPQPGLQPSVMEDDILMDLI
UniProt Q6ZN04: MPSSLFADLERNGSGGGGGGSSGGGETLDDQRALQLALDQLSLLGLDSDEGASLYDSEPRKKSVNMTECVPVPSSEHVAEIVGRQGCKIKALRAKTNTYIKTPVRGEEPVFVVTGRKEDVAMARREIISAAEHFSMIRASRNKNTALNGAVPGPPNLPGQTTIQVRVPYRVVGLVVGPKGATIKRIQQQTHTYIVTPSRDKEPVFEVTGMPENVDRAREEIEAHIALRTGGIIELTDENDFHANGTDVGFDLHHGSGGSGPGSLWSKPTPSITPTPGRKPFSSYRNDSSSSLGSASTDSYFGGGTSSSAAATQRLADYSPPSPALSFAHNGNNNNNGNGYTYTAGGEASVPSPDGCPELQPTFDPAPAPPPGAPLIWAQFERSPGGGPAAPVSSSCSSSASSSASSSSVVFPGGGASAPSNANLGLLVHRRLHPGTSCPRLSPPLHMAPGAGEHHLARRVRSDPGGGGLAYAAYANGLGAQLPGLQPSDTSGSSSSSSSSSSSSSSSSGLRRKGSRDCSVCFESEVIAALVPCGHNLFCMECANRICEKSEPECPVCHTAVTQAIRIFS
UniProt P50579: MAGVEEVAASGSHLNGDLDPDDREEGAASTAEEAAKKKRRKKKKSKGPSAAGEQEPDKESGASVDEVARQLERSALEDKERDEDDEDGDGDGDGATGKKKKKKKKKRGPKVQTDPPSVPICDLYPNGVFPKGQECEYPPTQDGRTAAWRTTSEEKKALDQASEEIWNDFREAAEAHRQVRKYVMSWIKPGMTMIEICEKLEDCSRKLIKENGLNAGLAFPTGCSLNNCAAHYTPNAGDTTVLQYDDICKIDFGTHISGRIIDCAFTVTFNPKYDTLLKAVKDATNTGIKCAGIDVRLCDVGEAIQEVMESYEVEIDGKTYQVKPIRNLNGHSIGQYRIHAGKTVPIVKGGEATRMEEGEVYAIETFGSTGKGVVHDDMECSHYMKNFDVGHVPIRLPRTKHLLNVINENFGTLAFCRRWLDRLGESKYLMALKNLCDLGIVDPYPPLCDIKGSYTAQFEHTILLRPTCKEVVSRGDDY

Columns and labels:
Experiment in all cases: log2 fold change, soluble protein after heating vs DMSO (PISA); higher = thermal stabilisation; K562 lysate, 10 uM; active = over 0.2 and 3.5 SD of the protein, either way, in both replicates (recomputed)
erlotinib = compound: C#Cc1cccc(Nc2ncnc3cc(OCCOC)c(OCCOC)cc23)c1 [erlotinib]
Summary of the method: (§1)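 A 30 min treatment with 10 μM compound was applied to crude K562 extract at 1 mg/mL protein in PBS pH 7.4 with 1 mM MgCl2. Heating for 3 min spanned 48°C-58°C, after which aliquots were pooled, adjusted to 0.5% NP-40 at 4°C and spun at 21,000xg for 90 min. TMTpro 16plex LC-MS/MS of the supernatant, with channel sums equalised, gave values recorded as log-two fold change in thermal stability against solvent controls, from duplicates.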

[1] = compound: C/C(=N\NC(=O)C1=CC(=CC=C1)S(=O)(=O)N2CCOCC2)/C3=C(C=CC(=C3)Cl)O
Summary of the method: as §1

[2] = compound: C1=CC(=CC=C1C2=NC3=C(N2)C=C(C=C3)C(=O)N)OC4=CC=C(C=C4)Cl
Summary of the method: as §1

[3] = compound: C1=CC2=C(C=CC(=C2)/C=C\3/C(=O)NC(=NCC4=CC=CS4)S3)N=C1
Summary of the method: as §1

[4] = compound: C1=CC=C(C=C1)C2=NC(=C(N2)C3=CC=NC=C3)C4=CC(=C(C=C4)Cl)O
Summary of the method: as §1

[5] = compound: C1=CC=C2C(=C1)C3=NNC4=CC=CC(=C43)C2=O
Summary of the method: as §1

[6] = compound: C1CCN(C1)C(=O)NC2=CC=CC(=C2)NC3=NC=C(C(=N3)NCCC4=CN=CN4)Br
Summary of the method: as §1

[7] = compound: C1CN(CCC1(CC2=CC=C(C=C2)Cl)N)C3=NC=NC4=C3C=CN4
Summary of the method: as §1

IRAK-1-4 Inhibitor I = compound: C1COCCN1CCN2C3=CC=CC=C3N=C2NC(=O)C4=CC(=CC=C4)[N+](=O)[O-] [IRAK-1-4 Inhibitor I]
Summary of the method: as §1

[8] = compound: C1=CC2=NC=CN=C2C=C1/C=C/3\C(=O)NC(=O)S3
Summary of the method: as §1

Measured: log2 fold change

MEN1 (UniProt O00255)
inactive: erlotinib 0.065 | [1] 0.008 | [2] 0.024 | [3] 0.111 | [4] 0.068 | [5] -0.058 | [6] 0.126 | [7] -0.076 | IRAK-1-4 Inhibitor I 0.053

METTL26 (UniProt Q96S19)
inactive: erlotinib -0.07 | [1] 0.08 | [2] -0.115 | [3] -0.002 | [8] -0.042 | [4] 0.074 | [5] -0.09 | [6] -0.096 | [7] 0.036 | IRAK-1-4 Inhibitor I 0.009

MFSD5 isoform 2 (UniProt Q6N075)
inactive: erlotinib -0.06 | [1] 0.03 | [2] 0.043 | [3] -0.038 | [8] -0.027 | [4] 0.131 | [5] -0.054 | [6] 0.058 | [7] -0.029 | IRAK-1-4 Inhibitor I -0.011

MCM3AP (UniProt O60318)
inactive: erlotinib 0.119 | [1] 0.046 | [2] 0.1 | [3] 0.003 | [8] -0.142 | [4] -0.082 | [5] 0.2 | IRAK-1-4 Inhibitor I 0.035

MED11 (UniProt Q9P086)
inactive: erlotinib 0.118 | [1] 0.353 | [2] 0.025 | [3] 0.086 | [8] -0.043 | [5] 0.171

MBNL2 (UniProt Q5VZF2)
inactive: erlotinib 0.097 | [1] 0.047 | [2] 0.311 | [3] 0.06 | [4] -0.064 | [5] -0.07 | [6] 0.114 | [7] -0.036 | IRAK-1-4 Inhibitor I -0.005

4 neighbouring entries already listed:
METTL26 (UniProt Q96S19)
inactive: erlotinib -0.07 | [1] 0.08 | [2] -0.115 | [3] -0.002 | [8] -0.042 | [4] 0.074 | [5] -0.09 | [6] -0.096 | [7] 0.036 | IRAK-1-4 Inhibitor I 0.009

MFSD5 isoform 2 (UniProt Q6N075)
inactive: erlotinib -0.06 | [1] 0.03 | [2] 0.043 | [3] -0.038 | [8] -0.027 | [4] 0.131 | [5] -0.054 | [6] 0.058 | [7] -0.029 | IRAK-1-4 Inhibitor I -0.011

MCM3AP (UniProt O60318)
inactive: erlotinib 0.119 | [1] 0.046 | [2] 0.1 | [3] 0.003 | [8] -0.142 | [4] -0.082 | [5] 0.2 | IRAK-1-4 Inhibitor I 0.035

MED11 (UniProt Q9P086)
inactive: erlotinib 0.118 | [1] 0.353 | [2] 0.025 | [3] 0.086 | [8] -0.043 | [5] 0.171

Continuation:

MELTF (UniProt P08582)
inactive: erlotinib -0.083 | [1] 0.018 | [2] 0.033 | [3] -0.013 | [8] -0.09 | [5] -0.005 | [6] -0.019 | [7] 0.038

MFAP3 (UniProt P55082)
inactive: erlotinib -0.063 | [1] 0.088 | [2] 0.096 | [3] 0.011 | [4] -0.004 | [5] 0.002 | IRAK-1-4 Inhibitor I -0.01

MDH2 (UniProt P40926)
inactive: erlotinib -0.039 | [1] 0.014 | [2] -0.002 | [3] -0.016 | [8] -0.01 | [4] -0.002 | [5] 0.003 | [6] 0.007 | [7] 0.004 | IRAK-1-4 Inhibitor I 0.008

MED18 (UniProt Q9BUE0)
inactive: erlotinib -0.03 | [1] 0.008 | [2] 0.004 | [3] -0.01 | [8] 0.015 | [4] 0.021 | [5] -0.017 | [6] -0.005 | [7] -0.015 | IRAK-1-4 Inhibitor I 0.047

MBOAT1 (UniProt Q6ZNC8)
inactive: erlotinib 0.436 | [1] -0.125 | [2] -0.018 | [3] 0.122 | [8] -0.075 | [4] 0.024 | [5] -0.313 | [6] -0.013 | [7] -0.03 | IRAK-1-4 Inhibitor I -0.096

ME3 (UniProt Q16798)
inactive: erlotinib -0.093 | [1] 0.118 | [2] 0.073 | [3] -0.042 | [8] 0.032 | [4] -0.059 | [5] -0.086 | [6] 0.009 | [7] -0.019 | IRAK-1-4 Inhibitor I -0.005

MBLAC1 (UniProt A4D2B0)
inactive: erlotinib -0.137 | [1] -0.165 | [2] -0.173 | [3] -0.071 | [5] -0.273 | [6] 0.074 | [7] 0.05

MEF2A isoform 2 (UniProt Q02078)
inactive: erlotinib -0.079 | [1] -0.044 | [2] 0.039 | [3] 0.079 | [8] -0.004 | [4] 0.01 | [5] -0.168 | IRAK-1-4 Inhibitor I -0.04

MBD2 (UniProt Q9UBB5)
inactive: erlotinib 0.013 | [1] -0.933 | [2] -0.003 | [3] 0.05 | [8] -0.016 | [4] 0.094 | [5] 0.023 | [6] -0.069 | [7] -0.011 | IRAK-1-4 Inhibitor I 0.016

MCTS2P, A0A3B3IRV3
inactive: erlotinib 0.095 | [2] 0.146 | [4] -0.039 | IRAK-1-4 Inhibitor I 0

MED25 isoform 3 (UniProt Q71SY5)
inactive: erlotinib 0.092 | [2] 0.01 | [8] -0.062 | [4] -0.006 | [6] 0.06 | [7] 0.073 | IRAK-1-4 Inhibitor I 0.073

MEX3B (UniProt Q6ZN04)
inactive: erlotinib -0.153 | [2] -0.047 | [8] -0.126 | [4] 0.189 | [6] -0.054 | [7] -0.08 | IRAK-1-4 Inhibitor I -0.07

METAP2 isoform 2 (UniProt P50579)
inactive: [4] -0.186 | [6] -0.024 | [7] 0.063 | IRAK-1-4 Inhibitor I 0.185
